# At least one structure is not confirmed: it was looked up by name or label, or the drawing left a doubt.
# Columns and labels:
# S. pneumoniae R6 strain = experiment: Pneumococcal growth in C-medium with modified choline (metabolisation); assay type: cell-based, Streptococcus pneumoniae; conditions: 10 μg/mL modified choline (FIG. 7)
# Escherichia coli = experiment: Specificity of labeling: bioorthogonal reaction on Escherichia coli; assay type: cell-based; conditions: cultured as S. pneumoniae with propargyl-choline
# Bacillus subtilis = experiment: Specificity of labeling: bioorthogonal reaction on Bacillus subtilis; assay type: cell-based; conditions: cultured as S. pneumoniae with propargyl-choline
# Pseudomonas aeruginosa = experiment: Specificity of labeling: bioorthogonal reaction on Pseudomonas aeruginosa; assay type: cell-based; conditions: cultured as S. pneumoniae with propargyl-choline
compound,measurement,setting,value
C#CC[N+](C)(C)CCO [propargyl-choline],growth rate compared with normal choline,S. pneumoniae R6 strain,Comparable growth rates
same,fluorescent signal after bioorthogonal reaction,Escherichia coli,No fluorescent signal was detected
same,fluorescent signal after bioorthogonal reaction,Bacillus subtilis,No fluorescent signal was detected
same,fluorescent signal after bioorthogonal reaction,Pseudomonas aeruginosa,No fluorescent signal was detected
